{"source": "patent US9445993B2", "about": "“Nanotechnology approach for inhalation therapies” (Rutgers, The State University of New Jersey, priority 2012, dated 2016)", "key": {"[1]": {"system": "84 key genes involved in tissue remodeling during wound repair and development of fibrosis; HIF1A, VHL", "experiment": "Gene expression by QPCR (Mouse Fibrosis RT Profiler PCR Array) and RT-PCR of HIF1A, VHL", "assay_type": "in vivo, mice"}, "[2]": {"system": "VEGF, CCL12, MMP3 and HIF1A proteins", "experiment": "Immunohistochemistry of lung tissue sections", "assay_type": "in vivo, mice"}, "[3]": {"conditions": "after instillation of bleomycin"}}}
{"substance": "bleomycin", "values": [{"measurement": "expression of HIF1A and VHL genes", "setting": "[1]; RT-PCR, after instillation of bleomycin", "result": "overexpression of HIF1A and suppression of VHL genes"}, {"measurement": "expression of genes PLG, PLAU, MMPs, TIMP1, AGT, BMP7, CCL11, CCL12, IFNG, interleukins, IL13RA2, INHBE, TNF, FASL, ITGB8, TGIF1", "setting": "[1]; after bleomycin instillation", "result": "substantially increased"}, {"measurement": "expression of ENG, TGFBR2 and SMAD6 genes", "setting": "[1]; [3]", "result": "significantly downregulated"}, {"measurement": "expression of genes encoding VEGF, ITGA1, CAV1 and signal transducer and activator of transcription 6 (STATE)", "setting": "[1]; [3]", "result": "decreased"}, {"measurement": "number of studied genes upregulated by more than 5 times", "setting": "[1]; of 84 genes, after instillation of bleomycin 1.5 U/kg", "result": 24}, {"measurement": "number of genes downregulated more than 5-fold", "setting": "[1]; out of 84 genes, after instillation of bleomycin 1.5 U/kg", "result": 7}, {"measurement": "expression of HIF1A protein", "setting": "[2]; after bleomycin instillation", "result": "upregulated"}, {"measurement": "expression of chemokine CCL12 and matrix metalloproteinase MMP3 proteins", "setting": "[2]; after bleomycin instillation", "result": "induced overexpression of both proteins"}, {"measurement": "VEGF protein expression in lung tissues", "setting": "[2]; [3]", "result": "substantially decreased"}]}
